# PubChem BioAssay AID652243 – Drosophila RNAi Screening Center – 2013
# Aim: 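Knock-downs that decrease or increase androgen receptor reporter signal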 (primary screen)
# System: Drosophila S2R+ cells
# Knock-down reagent: long dsRNA against Drosophila genes
# Timing: 72 h (48 h, then 24 h hormone)
# Treatment: synthetic androgen R1881 at 10 nM for 24 h
# Measurement: 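Firefly light from an androgen-responsive reporter and Renilla control light per well, raw and unnormalised, for each of two replicates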
# Scale: firefly reporter light: higher = more light from androgen-responsive reporter; Renilla control light: higher = more constitutive control signal (cell number, transfection)
# Rule for the call: 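Hit when the log firefly-to-Renilla ratio dropped or increased by a fixed fold versus the mean of GFP or LacZ controls across duplicate plates; lowering cut given as 1.5 and as 3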
# Calls: active = hit: reporter lowered or raised; inactive = no hit
# The deposit covers about 24,000 reagents; shown is an unselected part of those that have a named target and a result. Over the whole deposit, 246 (1%) got an active call. 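Plates not normalised; calls are printed but the firefly/Renilla ratio behind them is not deposited; fold cut for lowering reported inconsistently.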 Raw values vary from plate to plate and are shown uncorrected. A number with no mark means an inactive call. The numbers tell different reagents against one gene apart. Not stated in the record: the amount of reagent.
Target gene,reagent no.,"firefly reporter light, replicate 1","firefly reporter light, replicate 2","Renilla control light, replicate 1","Renilla control light, replicate 2"
Dg (Dystroglycan),1,68638,89731,1.89e6,1.89e6
CG31921,1,1.80e5,1.68e5,7.50e5,6.67e5
Akr1B (Aldo-keto reductase 1B),1,1.07e6,1.10e6,1.15e6,1.71e6
CG13461,1,2.09e5,2.41e5,1.79e6,1.55e6
CG13461,2,9.21e5,1.13e6,7.70e5,1.02e6
CG17221,1,1.31e5,1.03e5,6.88e5,8.43e5
CG17221,2,2.39e5,2.59e5,6.33e5,8.26e5
CG7168,1,1.41e5,82228,5.93e5,5.42e5
Srp72 (Signal recognition particle 72),1,70893,54857,8.37e5,7.22e5
Srp72 (Signal recognition particle 72),2,2.46e5,5.93e5,6.55e5,1.36e6
eIF3i (eukaryotic translation initiation factor 3 subunit i),1,8.04e5,1.05e6,1.44e6,1.50e6

Next part (2 carried over from the part before).
Target gene,reagent no.,"firefly reporter light, replicate 1","firefly reporter light, replicate 2","Renilla control light, replicate 1","Renilla control light, replicate 2"
Srp72 (Signal recognition particle 72),2,2.46e5,5.93e5,6.55e5,1.36e6
eIF3i (eukaryotic translation initiation factor 3 subunit i),1,8.04e5,1.05e6,1.44e6,1.50e6
CNT1 (Concentrative nucleoside transporter 1),1,3.38e5,1.96e5,1.75e6,1.33e6
CNT1 (Concentrative nucleoside transporter 1),2,3.96e5,3.09e5,7.31e5,7.31e5
Chro (Chromator),1,25259,30577,2.15e5,2.55e5
CG2772,1,1.52e5,1.09e5,8.81e5,6.20e5
CG2772,2,6.09e5,2.93e5,8.82e5,3.21e5
meso18E,1,1.50e5,1.60e5,5.70e5,4.40e5
meso18E,2,3.14e5,2.27e5,5.07e5,4.33e5
Crk (Crk oncogene),1,1.17e5,1.40e5,1.47e6,1.07e6
BomBc3 (Bomanin Bicipital 3),1,2.38e5,3.91e5,2.88e6,3.42e6
BomBc3 (Bomanin Bicipital 3),2,6.26e5,6.37e5,9.84e5,9.84e5
Cyp9b1 (Cytochrome P450 9b1),1,3.10e5,2.90e5,1.62e6,1.23e6
Cyp9b1 (Cytochrome P450 9b1),2,5.75e5,3.82e5,5.61e5,4.85e5
firl (firelighter),1,3.38e5,2.67e5,1.57e6,1.78e6
